{"sequences": {"note": "By UniProt entry, the sequences of proteins in these tests, tags left out. Where a name states a change or a piece, a line headed by the entry shows the natural chain unless it says otherwise. Chains listed by the source or under a name are the forms on record and can include a tag or linker.", "RTN-4B, endogenous in HeLa (Q9NQC3-2, form named)": "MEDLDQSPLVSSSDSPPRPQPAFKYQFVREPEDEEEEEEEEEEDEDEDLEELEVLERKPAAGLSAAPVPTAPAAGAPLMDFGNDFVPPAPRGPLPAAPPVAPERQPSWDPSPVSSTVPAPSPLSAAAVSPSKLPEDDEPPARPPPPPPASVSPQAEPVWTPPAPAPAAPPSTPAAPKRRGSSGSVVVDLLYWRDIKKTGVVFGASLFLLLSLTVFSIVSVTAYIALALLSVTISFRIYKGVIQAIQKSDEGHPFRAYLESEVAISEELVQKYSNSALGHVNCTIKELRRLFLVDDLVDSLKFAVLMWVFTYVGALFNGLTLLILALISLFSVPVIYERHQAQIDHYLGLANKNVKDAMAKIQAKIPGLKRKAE"}, "source": "paper doi:10.1101/679936", "experiment_in_all_cases": "co-IP", "key": {"FLAG-SREBP1a": {"target": "T1, FLAG-SREBP1a (UniProt P36956)", "T1 sequence": "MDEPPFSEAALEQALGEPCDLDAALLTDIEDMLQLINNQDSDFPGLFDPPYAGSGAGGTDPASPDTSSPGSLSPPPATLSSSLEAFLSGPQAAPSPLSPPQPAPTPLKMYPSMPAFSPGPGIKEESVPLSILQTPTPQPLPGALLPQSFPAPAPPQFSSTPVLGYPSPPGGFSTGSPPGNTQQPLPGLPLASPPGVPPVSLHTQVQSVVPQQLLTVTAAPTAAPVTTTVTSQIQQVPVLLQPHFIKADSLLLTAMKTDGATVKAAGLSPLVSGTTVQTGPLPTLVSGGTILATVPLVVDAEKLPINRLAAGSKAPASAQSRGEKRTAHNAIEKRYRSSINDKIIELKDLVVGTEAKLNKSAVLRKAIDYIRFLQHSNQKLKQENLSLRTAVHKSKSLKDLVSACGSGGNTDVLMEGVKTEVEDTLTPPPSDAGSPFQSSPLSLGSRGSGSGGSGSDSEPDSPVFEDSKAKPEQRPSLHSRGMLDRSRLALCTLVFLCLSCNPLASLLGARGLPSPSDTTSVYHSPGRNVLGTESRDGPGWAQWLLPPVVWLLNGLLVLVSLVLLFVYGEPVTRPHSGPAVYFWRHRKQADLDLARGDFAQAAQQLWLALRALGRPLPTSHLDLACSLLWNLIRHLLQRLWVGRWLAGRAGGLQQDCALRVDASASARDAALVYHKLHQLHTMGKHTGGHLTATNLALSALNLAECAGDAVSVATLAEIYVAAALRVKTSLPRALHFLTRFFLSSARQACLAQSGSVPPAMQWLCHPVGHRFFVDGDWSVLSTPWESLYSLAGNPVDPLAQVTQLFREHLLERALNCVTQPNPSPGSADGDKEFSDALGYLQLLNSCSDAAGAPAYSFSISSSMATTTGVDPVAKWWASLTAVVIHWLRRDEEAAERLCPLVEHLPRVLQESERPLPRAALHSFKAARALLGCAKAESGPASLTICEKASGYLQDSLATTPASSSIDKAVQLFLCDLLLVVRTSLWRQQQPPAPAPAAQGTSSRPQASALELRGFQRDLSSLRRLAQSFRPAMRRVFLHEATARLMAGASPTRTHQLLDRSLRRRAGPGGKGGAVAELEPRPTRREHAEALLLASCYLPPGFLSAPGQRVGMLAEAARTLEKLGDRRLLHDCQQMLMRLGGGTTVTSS"}, "FLAG-SREBP2": {"target": "T2, FLAG-SREBP2 (UniProt Q12772)", "T2 sequence": "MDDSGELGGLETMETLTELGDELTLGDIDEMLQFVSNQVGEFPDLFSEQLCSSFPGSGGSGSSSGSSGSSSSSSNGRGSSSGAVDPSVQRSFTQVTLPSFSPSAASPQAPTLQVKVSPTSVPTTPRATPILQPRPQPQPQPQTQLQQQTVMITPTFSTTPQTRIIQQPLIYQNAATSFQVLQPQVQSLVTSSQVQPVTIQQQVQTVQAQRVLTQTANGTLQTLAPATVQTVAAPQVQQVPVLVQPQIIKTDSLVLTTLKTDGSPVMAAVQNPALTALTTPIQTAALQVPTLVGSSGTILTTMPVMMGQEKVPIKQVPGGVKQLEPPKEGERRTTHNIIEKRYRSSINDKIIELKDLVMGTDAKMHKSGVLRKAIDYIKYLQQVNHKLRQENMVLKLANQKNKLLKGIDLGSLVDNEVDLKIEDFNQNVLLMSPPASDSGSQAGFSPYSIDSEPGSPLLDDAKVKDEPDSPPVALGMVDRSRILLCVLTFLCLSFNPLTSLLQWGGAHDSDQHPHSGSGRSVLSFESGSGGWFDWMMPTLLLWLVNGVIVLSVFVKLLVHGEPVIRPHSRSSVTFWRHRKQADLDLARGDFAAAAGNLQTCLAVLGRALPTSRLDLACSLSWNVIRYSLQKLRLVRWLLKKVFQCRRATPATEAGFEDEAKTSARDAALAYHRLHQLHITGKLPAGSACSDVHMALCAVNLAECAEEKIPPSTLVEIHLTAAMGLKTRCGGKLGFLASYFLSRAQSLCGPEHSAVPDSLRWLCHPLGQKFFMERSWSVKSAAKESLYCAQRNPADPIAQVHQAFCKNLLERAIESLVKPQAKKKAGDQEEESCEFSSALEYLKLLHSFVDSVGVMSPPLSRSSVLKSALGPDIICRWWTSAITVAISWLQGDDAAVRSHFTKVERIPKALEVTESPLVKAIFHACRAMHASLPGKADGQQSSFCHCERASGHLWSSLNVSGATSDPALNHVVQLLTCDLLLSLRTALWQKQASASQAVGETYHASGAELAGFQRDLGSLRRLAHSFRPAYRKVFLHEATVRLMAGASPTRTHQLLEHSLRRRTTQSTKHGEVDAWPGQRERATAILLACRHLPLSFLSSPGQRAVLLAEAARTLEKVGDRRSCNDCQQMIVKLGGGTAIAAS"}, "[1]": {"target": "T3, FLAG-tagged hamster SCAP (hamster) (UniProt P97260)", "T3 sequence": "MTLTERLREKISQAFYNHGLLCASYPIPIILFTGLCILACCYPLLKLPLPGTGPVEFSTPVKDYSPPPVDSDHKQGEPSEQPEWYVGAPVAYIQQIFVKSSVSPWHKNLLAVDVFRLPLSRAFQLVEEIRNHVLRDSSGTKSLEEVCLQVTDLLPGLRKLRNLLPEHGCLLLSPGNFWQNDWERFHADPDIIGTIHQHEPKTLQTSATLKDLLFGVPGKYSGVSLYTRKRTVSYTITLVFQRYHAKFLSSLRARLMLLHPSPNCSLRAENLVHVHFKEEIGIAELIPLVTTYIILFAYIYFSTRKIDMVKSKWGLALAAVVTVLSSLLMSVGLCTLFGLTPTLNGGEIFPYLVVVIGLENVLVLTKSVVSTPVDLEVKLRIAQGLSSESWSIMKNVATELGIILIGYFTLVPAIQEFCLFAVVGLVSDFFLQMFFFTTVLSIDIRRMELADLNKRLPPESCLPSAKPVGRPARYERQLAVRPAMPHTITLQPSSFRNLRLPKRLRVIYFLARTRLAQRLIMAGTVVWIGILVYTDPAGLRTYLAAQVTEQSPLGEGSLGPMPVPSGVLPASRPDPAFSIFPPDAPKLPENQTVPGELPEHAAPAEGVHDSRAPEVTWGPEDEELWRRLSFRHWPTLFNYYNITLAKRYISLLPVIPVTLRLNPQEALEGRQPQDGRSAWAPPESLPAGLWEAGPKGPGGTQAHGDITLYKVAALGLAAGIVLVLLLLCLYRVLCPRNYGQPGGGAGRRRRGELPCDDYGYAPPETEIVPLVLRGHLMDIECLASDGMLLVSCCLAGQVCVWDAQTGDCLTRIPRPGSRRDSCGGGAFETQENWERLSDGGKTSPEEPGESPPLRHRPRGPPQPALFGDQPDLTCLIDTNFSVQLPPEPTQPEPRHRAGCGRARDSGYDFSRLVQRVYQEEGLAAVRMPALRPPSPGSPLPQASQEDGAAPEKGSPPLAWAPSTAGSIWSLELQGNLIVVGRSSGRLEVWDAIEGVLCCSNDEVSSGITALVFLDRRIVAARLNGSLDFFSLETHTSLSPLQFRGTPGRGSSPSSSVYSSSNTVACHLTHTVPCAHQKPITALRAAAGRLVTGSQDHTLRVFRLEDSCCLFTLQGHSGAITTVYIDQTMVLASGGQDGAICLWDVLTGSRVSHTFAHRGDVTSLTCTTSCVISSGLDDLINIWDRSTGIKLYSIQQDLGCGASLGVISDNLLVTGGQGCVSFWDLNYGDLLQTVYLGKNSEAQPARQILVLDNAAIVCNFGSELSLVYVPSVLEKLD"}, "[2]": {"target": "T4, FLAG-SCAP stably expressed in HeLa cells (hamster) (UniProt P97260)", "T4 sequence": "T3 sequence"}}, "note": "No constants are given. Whether binding was seen depends on the method and setting. Binding seen in cells or lysates may run through a third protein. Where a sequence is shown, tags or fusion partners need not be part of it."}
{"substance": "reticulon-4B (RTN-4B), endogenous in HEK 293T (from UniProt Q9NQC3-2 1-373)", "values": [{"measurement": "binding", "setting": "FLAG-SREBP1a", "result": "no binding"}, {"measurement": "binding", "setting": "FLAG-SREBP2", "result": "no binding"}, {"measurement": "binding", "setting": "[1]", "result": "no binding"}]}
{"substance": "RTN-4B, endogenous in HeLa (from UniProt Q9NQC3-2 1-373)", "values": [{"measurement": "binding", "setting": "[2]", "result": "no binding"}]}
